Test results as given in PMC7596570.
These are yes or no findings as the source states them, for the method shown. In cells and extracts the contact can be indirect. Some results given as binding are weak or reduced against the parent protein; the word gives no strength.

Target: TRAIL Death Receptor 5 (DR5) (human (endogenous in HCT116)), O14763
Assay: co-IP; DR5-DISC IP: AMG 655 (agonistic anti-DR5 antibody)-conjugated Dynabeads added to HCT116 cells (untransfected, or transfected with FLAG-RALB constructs, or SC/siRALB) for the indicated times (1 h, 3 h); lysis in 0.2% NP-40, 20 mM Tris, 150 mM NaCl, 10% glycerol, pH 7.4; beads captured magnetically, western blot
Details: remark: other sources report otherwise

B1: Caspase-8, Q14790 1-479 (enzyme)
chain: MDFSRNLYDIGEQLDSEDLASLKFLSLDYIPQRKQEPIKDALMLFQRLQEKRMLEESNLSFLKELLFRINRLDLLITYLNTRKEEMERELQTPGRAQISAYRVMLYQISEEVSRSELRSFKFLLQEEISKCKLDDDMNLLDIFIEMEKRVILGEGKLDILKRVCAQINKSLLKIINDYEEFSKERSSSLEGSPDEFSNGEELCGVMTISDSPREQDSESQTLDKVYQMKSKPRGYCLIINNHNFAKAREKVPKLHSIRDRNGTHLDAGALTTTFEELHFEIKPHDDCTVEQIYEILKIYQLMDHSNMDCFICCILSHGDKGIIYGTDGQEAPIYELTSQFTGLKCPSLAGKPKVFFIQACQGDNYQKGIPVETDSEEQPYLEMDLSSPQTRYIPDEADFLLGMATVNNCVSYRNPAEGTWYIQSLCQSLRERCPRGDDILTILTEVNYEVSNKDDKKNMGKQMPQPTFTLRKKLVFPSD
binding: binds
